Laboratory results published in patent US20250320282A1 (MABYLON, published 2025).
These are yes or no findings as the source states them, for the method shown. Some results given as binding are weak or reduced against the parent protein; the word gives no strength. Tags and fused reporters may be left off the sequences shown.

Assays:
[1] = target: T1, Ara h 2 (Arachis hypogaea allergen 2) (Arachis hypogaea, UniProt Q6PSU2 22-172); assay: ELISA
T1 construct: Peanut allergen; also called nAra h 2; natural Ara h 2
T1 sequence: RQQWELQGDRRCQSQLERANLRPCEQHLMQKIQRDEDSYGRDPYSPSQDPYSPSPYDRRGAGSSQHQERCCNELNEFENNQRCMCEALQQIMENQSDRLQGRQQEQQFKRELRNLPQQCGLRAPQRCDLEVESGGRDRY

[2] = target: T2, Ara h 3 (Arachis hypogaea allergen 3) (Arachis hypogaea); assay: ELISA
T2 construct: Peanut allergen; also called Ara h 3.0101; nAra h 3
T2 chain: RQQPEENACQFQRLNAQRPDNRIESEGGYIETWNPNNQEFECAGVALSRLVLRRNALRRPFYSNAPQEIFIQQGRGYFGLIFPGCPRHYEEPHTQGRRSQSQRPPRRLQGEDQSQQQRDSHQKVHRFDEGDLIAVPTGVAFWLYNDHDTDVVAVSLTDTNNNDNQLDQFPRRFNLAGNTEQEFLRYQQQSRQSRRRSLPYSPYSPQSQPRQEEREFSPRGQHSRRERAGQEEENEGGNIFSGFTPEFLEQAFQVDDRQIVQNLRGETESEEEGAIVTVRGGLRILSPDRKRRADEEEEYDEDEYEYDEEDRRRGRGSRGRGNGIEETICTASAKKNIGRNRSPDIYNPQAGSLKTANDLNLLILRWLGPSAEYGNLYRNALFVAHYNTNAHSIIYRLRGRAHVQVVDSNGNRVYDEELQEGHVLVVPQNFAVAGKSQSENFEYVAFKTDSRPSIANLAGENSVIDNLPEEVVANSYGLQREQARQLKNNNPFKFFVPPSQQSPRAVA

[3] = target: T2, Ara h 3 (Arachis hypogaea allergen 3); assay: ELISA, antibody titration on coated nAra h 3
[4] = target: T1, Ara h 2 (Arachis hypogaea allergen 2); assay: as shown in the appended examples
[5] = target: T2, Ara h 3 (Arachis hypogaea allergen 3); assay: as shown in the appended examples
[6] = target: T1, Ara h 2 (Arachis hypogaea allergen 2); assay: ELISA, antibody titration on coated nAra h 2
[7] = target: T1, Ara h 2 (Arachis hypogaea allergen 2); assay: ELISA, antibody titration on coated Ara h 2
[8] = target: T1, Ara h 2 (Arachis hypogaea allergen 2); assay: BLI, 15E3-human IgG1 on anti-human Fc sensor, nAra h 2 then chimeric IgGs in sequence
[9] = target: T1, Ara h 2 (Arachis hypogaea allergen 2); assay: ELISA, purified rabbit antibody
[10] = target: T3, Ara h 6 (Arachis hypogaea allergen 6) (Arachis hypogaea, UniProt Q647G9 22-145); assay: ELISA, purified rabbit antibody
T3 construct: Peanut allergen; also called Ara h 6.0101; nAra h 6
T3 sequence: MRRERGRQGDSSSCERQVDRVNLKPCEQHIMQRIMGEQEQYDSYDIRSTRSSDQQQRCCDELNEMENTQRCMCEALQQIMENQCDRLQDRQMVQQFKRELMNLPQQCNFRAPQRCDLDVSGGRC

[11] = target: T2, Ara h 3 (Arachis hypogaea allergen 3); assay: ELISA, purified rabbit antibody

Measured: binding

B1: 17H9 (antibody, V domains shown)
VH: QVQLEEYGGGVVQPGRSLRLSCVASGSTLGTYGMHWVRQAPGKGLEWVAIISPDGGHQDYADPVRGRFTVSRDNSKNTLYLQMDNLRVEDTAVYYCATTLCARTDCTWVRSDSWGQGTLVTVSS
VL: ANVLTQSPGTLSLSPGERATLSCRASQRVSGDYLAWYQQKRGQAPRLLIYGASSRATGIPDRFSGSGSGTDFTLTISRLEPEDFAVYYCQHYNGPPVTFGQGTKLEIK
notes: Fully human monoclonal antibody, wild-type variable regions; tested as IgG (detected with anti-human IgG); also called MY006-17H9
binds: [1] | [2] | [3] | [4] | [5] | [6]

B2: 2F8 (antibody, V domains shown)
VH: EVQLVESGGGLVKPGGSLRLSCAASGFIFSDYNMNWVRQAPGKGLEWVSSITRSSRTIYYADSVKGRFTISRDNAKNSLHLQMNSLRDADTAVYYCAREDFDVSTGPYYMDVWGNGTTVIVSS
VL: EIVLTQSPGTLSLSPGERATLSCRASQSVSNMFLVWYQQKPGQAPRLLMYGASTRATDIPDRFSGSGSGTDFTLTISRLEPEDFAVYYCQQNGNSPYTFGQGTKLEIK
notes: Fully human monoclonal antibody, wild-type variable regions; tested as IgG; also called MY006-2F8
binds: [1] | [7] | [6]

B3: 15E3 (antibody, V domains shown)
VH: EVQLVESGGALVQPGGSLRLSCAASGFKFSTFYMTWIRQAPGKGLEWVANIKQDGSEKDYLDSVRGRFNISRDNAKSVLYLQMNTLSADDTGVYYCTRNGLQDSYSGDFFDHWGQGILVTVSS
VL: QSVLTQPPSISAAPGQKVTISCSGTGSNIGHNYVSWYQQLPRTAPRLLIFDNTKRPSGIPDRFSGSKSGSSATLGITGLQTGDEAHYFCATWDADLSAVLFGGGTKLTVL
notes: Fully human monoclonal antibody, wild-type variable regions; also called MY006-15E3; 15E3-human IgG1
binds: [1] | [4] | [8] | [6]

B4: 2F8_rb_IGHV1S7_J4+IGKV1S21_JK1-2 (antibody, V domains shown)
VH: QQLKESGGGLVKPGGSLKLCCKASGFTFSDYNMNWVRQAPGKGLEWIGSITRSSRTIYYADSVKGRFTLSRDNAQSTVCLQLNSLTAADTATYFCAREDFNVYTGPYYYDVWGPGTLVTVSS
VL: YVMMTQTPSSVSEAVGGTVTIYCRASQSVSNMFLVWYQQKPGQPPKLLIYGASTRATGVPSRFRGSGSGTQFTLTISGMKAEDVATYYCQQNGNSPYTFGGGTEVVVK
binds: [9] | [10]

B5: 17H9_rb_IGHV1S7_J3+IGKV1S34_JK1-2 (antibody, V domains shown)
VH: QQLKESGGGLVKPGGSLKLCCKASGFTFSTYGMHWVRQAPGKGLEWIGIISPDGGHQDYADPVRGRFTLSRDNAQSTVCLQLNSLTAADTATYFCARTLCARTDCTWVRSDSWGPGTLVTVSS
VL: DVVMTQTPSPVSAAVGGTVTINCRASQRVSGDYLAWYQQKPGQPPKLLIYGASSRATGVPSRFSGSGSGTEFTLTISDLECADAATYYCQHYNGPPVTFGGGTEVVVK
binds: [9] | [11]

B6: 17H9_rb_IGHV1S7_J3+IGKV1S34_JK1-5 (antibody, V domains shown)
VH: QQLKESGGGLVKPGGSLKLCCKASGFTFSTYGMHWVRQAPGKGLEWIGIISPDGGHQDYADPVRGRFTLSRDNAQSTVCLQLNSLTAADTATYFCARTLCARTDCTWVRSDSWGPGTLVTVSS
VL: DVVMTQTPSPVSAAVGGTVTINCRASQRVSGDYLAWYQQKPGQPPKLLIYGASSRATGVPSRFSGSGSGTEFTLTISDLECADAATYYCQHYNGPPVTFGEETKLEIK
binds: [9] | [11]
